From PMC12967509
Results are given in words; binding and its absence hold for the method and conditions named. In cells and extracts the contact can be indirect. Some binding calls cover weakened binding; strength is not graded here. Tags and fused reporters may be left off the sequences shown.

T1: EGFP-fused IFT38 (UniProt Q96AJ1)
T1 sequence: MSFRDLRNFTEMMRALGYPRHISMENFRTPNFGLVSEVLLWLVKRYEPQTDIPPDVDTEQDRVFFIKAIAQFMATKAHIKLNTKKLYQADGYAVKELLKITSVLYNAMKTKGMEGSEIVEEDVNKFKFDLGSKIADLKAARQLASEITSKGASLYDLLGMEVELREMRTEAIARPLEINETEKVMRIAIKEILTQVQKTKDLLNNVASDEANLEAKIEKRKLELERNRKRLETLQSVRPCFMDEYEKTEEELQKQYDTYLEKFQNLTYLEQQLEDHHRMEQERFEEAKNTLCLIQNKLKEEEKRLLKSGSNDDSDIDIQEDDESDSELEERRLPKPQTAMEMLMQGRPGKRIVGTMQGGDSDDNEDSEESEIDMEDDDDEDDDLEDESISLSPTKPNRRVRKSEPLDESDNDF

T2: EGFP-fused IFT52 (UniProt Q9Y366)
T2 sequence: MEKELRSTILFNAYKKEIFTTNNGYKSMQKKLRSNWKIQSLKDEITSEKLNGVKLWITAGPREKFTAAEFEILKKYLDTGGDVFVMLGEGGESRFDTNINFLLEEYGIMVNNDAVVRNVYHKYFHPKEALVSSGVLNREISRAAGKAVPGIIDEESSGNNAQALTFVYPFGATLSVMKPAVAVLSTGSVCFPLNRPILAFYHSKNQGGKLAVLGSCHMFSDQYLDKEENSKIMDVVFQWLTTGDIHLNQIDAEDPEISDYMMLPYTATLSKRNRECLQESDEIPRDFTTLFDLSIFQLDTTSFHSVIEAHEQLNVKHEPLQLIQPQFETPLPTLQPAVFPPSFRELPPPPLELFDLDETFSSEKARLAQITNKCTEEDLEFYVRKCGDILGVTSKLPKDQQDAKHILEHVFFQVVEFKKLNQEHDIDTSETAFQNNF

T3: EGFP-fused IFT74 (UniProt Q96LB3)
T3 sequence: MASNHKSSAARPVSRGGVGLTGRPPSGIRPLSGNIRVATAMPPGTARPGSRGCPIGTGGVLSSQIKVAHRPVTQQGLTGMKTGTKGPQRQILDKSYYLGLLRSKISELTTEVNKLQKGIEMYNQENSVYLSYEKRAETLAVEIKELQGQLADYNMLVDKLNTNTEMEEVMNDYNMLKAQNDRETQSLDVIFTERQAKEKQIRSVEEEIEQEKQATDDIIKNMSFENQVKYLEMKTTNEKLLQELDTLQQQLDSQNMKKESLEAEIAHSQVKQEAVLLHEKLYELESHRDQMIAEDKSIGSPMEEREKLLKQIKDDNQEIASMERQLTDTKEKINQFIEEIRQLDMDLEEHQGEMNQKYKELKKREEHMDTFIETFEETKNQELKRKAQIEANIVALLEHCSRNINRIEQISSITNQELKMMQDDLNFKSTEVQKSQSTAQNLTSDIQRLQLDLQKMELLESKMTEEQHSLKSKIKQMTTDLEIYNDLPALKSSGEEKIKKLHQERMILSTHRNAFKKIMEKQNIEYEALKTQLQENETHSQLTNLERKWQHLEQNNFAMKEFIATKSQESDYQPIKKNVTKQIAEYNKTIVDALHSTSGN


Legend:
Assay in all cases: co-IP; EGFP-fused bait stably expressed in control RPE1 cells and KO cells (KIF3B-KO, IFT38-KO, IFT54-KO, IFT81-KO, IFT88-KO), serum-starved 24 h; lysis buffer 20 mM HEPES-KOH pH 7.4, 100 mM KCl, 5 mM NaCl, 3 mM MgCl2, 1 mM DTT, 10% glycerol, 0.1% Triton X-100; precipitated with GST-tagged anti-GFP Nb on glutathione-Sepharose 4B; endogenous subunits detected by immunoblot
[1] = molecular target: T1, EGFP-fused IFT38
[2] = molecular target: T2, EGFP-fused IFT52
[3] = molecular target: T3, EGFP-fused IFT74

Row | binding [1] | binding [2] | binding [3] | Binder
1 | binds |  |  | IFT57 (protein, UniProt Q9NWB7 1-429) MTAALAVVTTSGLEDGVPRSRGEGTGEVVLERGPGAAYHMFVVMEDLVEKLKLLRYEEEFLRKSNLKAPSRHYFALPTNPGEQFYMFCTLAAWLINKAGRPFEQPQEYDDPNATISNILSELRSFGRTADFPPSKLKSGYGEHVCYVLDCFAEEALKYIGFTWKRPIYPVEELEEESVAEDDAELTLNKVDEEFVEEETDNEENFIDLNVLKAQTYHLDMNETAKQEDILESTTDAAEWSLEVERVLPQLKVTIRTDNKDWRIHVDQMHQHRSGIESALKETKGFLDKLHNEITRTLEKISSREKYINNQLENLVQEYRAAQAQLSEAKERYQQGNGGVTERTRLLSEVMEELEKVKQEMEEKGSSMTDGAPLVKIKQSLTKLKQETVEMDIRIGIVEHTLLQSKLKEKSNMTRNMHATVIPEPATGFY
2 |  | binds | binds | IFT81 (protein, UniProt Q8WYA0 1-676) MSDQIKFIMDSLNKEPFRKNYNLITFDSLEPMQLLQVLSDVLAEIDPKQLVDIREEMPEQTAKRMLSLLGILKYKPSGNATDMSTFRQGLVIGSKPVIYPVLHWLLQRTNELKKRAYLARFLIKLEVPSEFLQDETVADTNKQYEELMEAFKTLHKEYEQLKISGFSTAEIRKDISAMEEEKDQLIKRVEHLKKRVETAQNHQWMLKIARQLRVEKEREEYLAQQKQEQKNQLFHAVQRLQRVQNQLKSMRQAAADAKPESLMKRLEEEIKFNLYMVTEKFPKELENKKKELHFLQKVVSEPAMGHSDLLELESKINEINTEINQLIEKKMMRNEPIEGKLSLYRQQASIISRKKEAKAEELQEAKEKLASLEREASVKRNQTREFDGTEVLKGDEFKRYVNKLRSKSTVFKKKHQIIAELKAEFGLLQRTEELLKQRHENIQQQLQTMEEKKGISGYSYTQEELERVSALKSEVDEMKGRTLDDMSEMVKKLYSLVSEKKSALASVIKELRQLRQKYQELTQECDEKKSQYDSCAAGLESNRSKLEQEVRRLREECLQEESRYHYTNCMIKNLEVQLRRATDEMKAYISSDQQEKRKAIREQYTKNTAEQENLGKKLREKQKVIRESHGPNMKQAKMWRDLEQLMECKKQCFLKQQSQTSIGQVIQEGGEDRLIL
